Results as given in publication PMC11814420.
These are yes or no findings as the source states them, for the method shown. Binding seen in cells or lysates may run through a third protein. Some results given as binding are weak or reduced against the parent protein; the word gives no strength. Each block holds one substance with its values, some of them ahead of it.

The chains behind the UniProt entries cited, without tags or fusion partners. Residues count along the entry.
UniProt Q5VW38, residues 40-600: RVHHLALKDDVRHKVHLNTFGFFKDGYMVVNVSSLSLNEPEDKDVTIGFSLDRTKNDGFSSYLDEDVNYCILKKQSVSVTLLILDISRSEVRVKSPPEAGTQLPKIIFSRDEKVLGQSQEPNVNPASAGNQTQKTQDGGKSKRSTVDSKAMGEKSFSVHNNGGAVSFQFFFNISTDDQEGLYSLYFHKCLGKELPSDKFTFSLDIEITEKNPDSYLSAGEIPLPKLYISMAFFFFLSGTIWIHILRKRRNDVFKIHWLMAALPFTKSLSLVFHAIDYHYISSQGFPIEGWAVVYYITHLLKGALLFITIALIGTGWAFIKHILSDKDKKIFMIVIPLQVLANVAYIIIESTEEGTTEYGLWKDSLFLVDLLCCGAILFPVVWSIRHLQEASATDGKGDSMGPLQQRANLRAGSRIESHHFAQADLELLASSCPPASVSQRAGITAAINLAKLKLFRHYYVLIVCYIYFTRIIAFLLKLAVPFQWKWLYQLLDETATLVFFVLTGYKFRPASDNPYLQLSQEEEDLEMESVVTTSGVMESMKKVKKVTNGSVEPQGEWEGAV

What was measured:
[1] = molecular target: Flag-tagged GPR107 (G protein-coupled receptor 107) (UniProt Q5VW38); assay: co-IP; two tagged proteins co-expressed in HPC (Flag-GPR107 with His-AT1R, or with HA-clathrin); co-IP and immunoblotting with antibodies against the tags or the proteins
[2] = molecular target: endogenous angiotensin II receptor type 1 (AT1R) (human (endogenous in HPC)) (UniProt P30556); assay: co-IP; endogenous proteins of HPC immunoprecipitated with an anti-AT1R antibody, then immunoblotting
[3] = molecular target: Flag-tagged GPR107 (G protein-coupled receptor 107) (UniProt Q5VW38); assay: co-IP; Flag-tagged GPR107 expressed in HPC cells and used for the co-IP; endogenous partners detected by immunoblotting

- binding [1]: binds
Substance: His-tagged AT1R (from UniProt P30556 1-359) (receptor)

- binding [2]: binds
Substance: endogenous GPR107 (from UniProt Q5VW38 40-600) (receptor)

- binding [3]: binds
Substance: endogenous angiotensin II receptor type 1 (AT1R) (from UniProt P30556 1-359)
